{"source": "PubChem BioAssay AID1053208 (Peter MacCallum Cancer Centre, 2014)", "purpose": "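Synthetic lethal interactions between gene loss and doxorubicin in osteosarcoma cells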 (primary screen)", "cells": "mouse osteosarcoma cells, early-passage culture from an engineered mouse model of fibroblastic bone tumour", "reagents": "siRNA pool against mouse genes, 40 nM", "duration": "about 120 h (48 h before drug, then 72 h with drug)", "treatment": "doxorubicin 100 nM for 72 h, roughly 30-40% inhibitory dose", "measurement": "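Viability read as ATP luminescence after 72 h of 100 nM doxorubicin or none, duplicate wells averaged, scaled to non-targeting siRNA, then expressed as robust z-scores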", "direction": "viability z-score with doxorubicin: higher = more viable cells under doxorubicin; viability z-score without drug: higher = more viable cells with knock-down alone", "call rule": "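a pool counts as active when its viability z-score with doxorubicin is -2 or below and its z-score without drug lies between -2 and 2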", "note": "The whole screen tested about 17,000 reagents; this is an unselected part. In the full data, 788 (4.7%) were called active. 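Calls rest on z-score classes alone; an extra cut-off of viability at most 70% of control was not applied to them.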 A number with no mark means an inactive call. Further read-outs or replicates are left out here. No sequences are given here."}
The first 2 entries, to show the layout:
{"target gene": "Rinl", "combined z-score class": "no change with or without drug", "viability z-score with doxorubicin": -0.22, "viability z-score without drug": -1.01}
{"target gene": "Hmgn5", "combined z-score class": "no change with or without drug", "viability z-score with doxorubicin": -1.12, "viability z-score without drug": -0.51}

The listing, from the first entry:
{"target gene": "Rinl", "combined z-score class": "no change with or without drug", "viability z-score with doxorubicin": -0.22, "viability z-score without drug": -1.01}
{"target gene": "Hmgn5", "combined z-score class": "no change with or without drug", "viability z-score with doxorubicin": -1.12, "viability z-score without drug": -0.51}
{"target gene": "Khdc3", "combined z-score class": "no change with or without drug", "viability z-score with doxorubicin": 1.8, "viability z-score without drug": 1.18}
{"target gene": "Gm10413", "combined z-score class": "no change with or without drug", "viability z-score with doxorubicin": 1.8, "viability z-score without drug": 1.69}
{"target gene": "Or5p51", "combined z-score class": "no change with or without drug", "viability z-score with doxorubicin": -1.24, "viability z-score without drug": -1.35}
{"target gene": "Ubqln1", "combined z-score class": "no change with or without drug", "viability z-score with doxorubicin": -0.22, "viability z-score without drug": 0.34}
{"target gene": "Ero1a", "combined z-score class": "no change with or without drug", "viability z-score with doxorubicin": 0.45, "viability z-score without drug": 0.34}
{"target gene": "Or6c76", "combined z-score class": "no change with or without drug", "viability z-score with doxorubicin": 0.45, "viability z-score without drug": 0.51}
{"target gene": "Ctnna2", "combined z-score class": "no change with or without drug", "viability z-score with doxorubicin": 0.11, "viability z-score without drug": 0.84}
{"target gene": "CHD3", "combined z-score class": "no change with or without drug", "viability z-score with doxorubicin": -1.57, "viability z-score without drug": -0.17}
{"target gene": "Rnf138", "combined z-score class": "no change with or without drug", "viability z-score with doxorubicin": -0.9, "viability z-score without drug": -1.01}
{"target gene": "Ntmt1", "combined z-score class": "no change with or without drug", "viability z-score with doxorubicin": 0.45, "viability z-score without drug": 0.51}
